Some results were stated once for a whole list of compounds, not compound by compound. Some ranges recur; such a range may be that of the whole group of compounds.
How the values were obtained:
[1] = 19F spin-lattice relaxation time (T1) measurement by inversion recovery method, 500 MHz NMR; format: physicochemical; conditions: 5 mM/CDCl3, 36° C.
Experimental: (§1) For each of the compounds of Examples 1 to 10, Comparative Example 1, and Comparative Example 2 obtained as above, a ^19F spin-lattice relaxation time (T1) and a ^19F spin-spin relaxation time (T2) were measured by the following method.
The compound was dissolved in a deuterated chloroform solution at a concentration of 5 mM, and the longitudinal relaxation time (T1) of the ^19F nucleus was measured using a 500 MHz NMR device by an inversion recovery method under the conditions described below.
• NMR device: JNM-ECA500 (manufactured by JOEL) • Measurement temperature: 36° C. • Pulse sequence: double_pulse • relaxation_delay: 10 [s] • tau_interval: 4, 3, 2, 1, 0.8, 0.6, 0.4, 0.2, 0.1 [s], 80, 60, 40, 20, 10, 8, 6, 4, 2 [ms] • Accumulated number of times: 128 times

[2] = 19F spin-spin relaxation time (T2) measurement by CPMG method, 500 MHz NMR; format: physicochemical; conditions: 5 mM/CDCl3, 36° C.
Experimental: as §1
The compound was dissolved in a deuterated chloroform solution at a concentration of 5 mM, and the transverse relaxation time (T2) of the ^19F nucleus was measured using a 500 MHz NMR device by a Carr-Purcell-Meiboom-Gill (CPMG) method under the conditions described below.
• NMR device: JNM-ECA500 (manufactured by JOEL) • Measurement temperature: 36° C. • relaxation_delay: 10 [s] • tau_step: 1 [ms] • relaxation_delay: 1, 2, 3, 4, 5, 6, 8, 9, 10, 25, 50, 75 [ms], 0.10, 0.25, 0.50, 0.75, 1.00, 1.25, 1.50, 1.75, 2.00 [s] • Accumulated number of times: 128 times

Structure (SMILES) | T1 (19F spin-lattice relaxation time) [1] | T2 (19F spin-spin relaxation time) [2] | further results
CC1(C)CC(OCC(COC(C(F)(F)F)(C(F)(F)F)C(F)(F)F)(COC(C(F)(F)F)(C(F)(F)F)C(F)(F)F)COC(C(F)(F)F)(C(F)(F)F)C(F)(F)F)CC(C)(C)N1O [Compound 11, 4-(3-((1,1,1,3,3,3-hexafluoro-2-(trifluoromethyl)propan-2-yl)oxy)-2,2-bis(((1,1,1,3,3,3-hexafluoro-2-(trifluoromethyl)propan-2-yl)oxy)methyl)propoxy)-2,2,6,6-tetramethylpiperidin-1-oxyl] | shorter ^19F spin-lattice relaxation times (T1) than those of the compounds of Comparative Examples 1 and 2 | within an appropriate range | –
CC(COC1CC(C)(C)N(O)C(C)(C)C1)(COC(C(F)(F)F)(C(F)(F)F)C(F)(F)F)COC(C(F)(F)F)(C(F)(F)F)C(F)(F)F [Compound 13, 4-(3-((1,1,1,3,3,3-hexafluoro-2-(trifluoromethyl)propan-2-yl)oxy)-2-(((1,1,1,3,3,3-hexafluoro-2-(trifluoromethyl)propan-2-yl)oxy)methyl)-2-methylpropoxy)-2,2,6,6-tetramethylpiperidin-1-oxyl] | shorter ^19F spin-lattice relaxation times (T1) than those of the compounds of Comparative Examples 1 and 2 | within an appropriate range | –
CC1(C)CC(OCCOCC(COC(C(F)(F)F)(C(F)(F)F)C(F)(F)F)(COC(C(F)(F)F)(C(F)(F)F)C(F)(F)F)COC(C(F)(F)F)(C(F)(F)F)C(F)(F)F)CC(C)(C)N1O [Compound 14] | shorter ^19F spin-lattice relaxation times (T1) than those of the compounds of Comparative Examples 1 and 2 | within an appropriate range | –
CCC1(CC)CC(OCCOCC(COC(C(F)(F)F)(C(F)(F)F)C(F)(F)F)(COC(C(F)(F)F)(C(F)(F)F)C(F)(F)F)COC(C(F)(F)F)(C(F)(F)F)C(F)(F)F)CC(CC)(CC)N1O [Compound 15] | shorter ^19F spin-lattice relaxation times (T1) than those of the compounds of Comparative Examples 1 and 2 | within an appropriate range | –
CCC1(CC)CC(OCCCOCC(COC(C(F)(F)F)(C(F)(F)F)C(F)(F)F)(COC(C(F)(F)F)(C(F)(F)F)C(F)(F)F)COC(C(F)(F)F)(C(F)(F)F)C(F)(F)F)CC(CC)(CC)N1O [Compound 17] | – | – | T1 (19F spin-lattice relaxation time) ([1]; listed as Example 7): shorter ^19F spin-lattice relaxation times (T1) than those of the compounds of Comparative Examples 1 and 2; T2 (19F spin-spin relaxation time) ([2]; listed as Example 7): within an appropriate range
CC1(C)CC(OCCCCCCOCC(COC(C(F)(F)F)(C(F)(F)F)C(F)(F)F)(COC(C(F)(F)F)(C(F)(F)F)C(F)(F)F)COC(C(F)(F)F)(C(F)(F)F)C(F)(F)F)CC(C)(C)N1O [Compound 18] | – | – | T1 (19F spin-lattice relaxation time) ([1]; listed as Example 8): shorter ^19F spin-lattice relaxation times (T1) than those of the compounds of Comparative Examples 1 and 2; T2 (19F spin-spin relaxation time) ([2]; listed as Example 8): within an appropriate range
CC1(C)CC(OCCCCCCCCCOCC(COC(C(F)(F)F)(C(F)(F)F)C(F)(F)F)(COC(C(F)(F)F)(C(F)(F)F)C(F)(F)F)COC(C(F)(F)F)(C(F)(F)F)C(F)(F)F)CC(C)(C)N1O [Compound 19] | shorter ^19F spin-lattice relaxation times (T1) than those of the compounds of Comparative Examples 1 and 2 | within an appropriate range | –
CC1(C)CC(OCCCCCCCCCCCCOCC(COC(C(F)(F)F)(C(F)(F)F)C(F)(F)F)(COC(C(F)(F)F)(C(F)(F)F)C(F)(F)F)COC(C(F)(F)F)(C(F)(F)F)C(F)(F)F)CC(C)(C)N1O [Compound 20] | shorter ^19F spin-lattice relaxation times (T1) than those of the compounds of Comparative Examples 1 and 2 | within an appropriate range | –

Reference: patent US20250011287A1, “FLUORINE-CONTAINING COMPOUND AND CONTRAST AGENT” (TDK CORPORATION, priority 2021, published 2025)
